Like-named read-outs stand apart in the source and are kept apart here. Results are given in words; binding and its absence hold for the method and conditions named. Binding seen in cells or lysates may run through a third protein. Here binding means that the protein was enriched with, or labelled near, the bait; the list need not be complete.
Tests used:
[1] = biological target: heat shock transcription factor 1 (endogenous, mouse striatal cells) (mouse (endogenous in STHdh striatal cells)) (UniProt P38532); assay: affinity purification with mass spectrometry; endogenous untagged HSF1 immunoprecipitated with polyclonal anti-HSF1 covalently linked to DynaG beads from STHdh Q7 (control), Q7 heat shock (42 °C, 30 min) and Q111 (HD) lysates, no cross-linker; IgG IP as control; hits at least twofold over IgG, p < 0.05, ProteinTeller probability >= 0.8; quantitative LC-MS/MS
[2] = biological target: heat shock transcription factor 1 (endogenous, mouse striatal cells) (mouse (endogenous in STHdh striatal cells)) (UniProt P38532); assay: as above; remark: listed apart in the source

Protein sequences, listed by entry. Tags and fused reporters are not part of them.
UniProt P38532: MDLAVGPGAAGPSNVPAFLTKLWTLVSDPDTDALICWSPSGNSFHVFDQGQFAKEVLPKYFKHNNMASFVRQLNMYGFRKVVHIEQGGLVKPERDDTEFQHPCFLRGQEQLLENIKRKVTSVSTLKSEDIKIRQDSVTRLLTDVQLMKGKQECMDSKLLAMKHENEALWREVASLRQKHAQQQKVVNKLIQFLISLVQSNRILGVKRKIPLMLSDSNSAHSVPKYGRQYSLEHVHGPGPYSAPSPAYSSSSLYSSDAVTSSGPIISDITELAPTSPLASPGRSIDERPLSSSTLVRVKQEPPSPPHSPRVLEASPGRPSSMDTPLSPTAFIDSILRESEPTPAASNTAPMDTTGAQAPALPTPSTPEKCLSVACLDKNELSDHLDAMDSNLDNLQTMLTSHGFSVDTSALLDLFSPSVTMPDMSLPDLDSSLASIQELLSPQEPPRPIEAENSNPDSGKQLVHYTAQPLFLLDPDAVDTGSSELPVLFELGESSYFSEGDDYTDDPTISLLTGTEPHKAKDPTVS
UniProt Q9JLV1: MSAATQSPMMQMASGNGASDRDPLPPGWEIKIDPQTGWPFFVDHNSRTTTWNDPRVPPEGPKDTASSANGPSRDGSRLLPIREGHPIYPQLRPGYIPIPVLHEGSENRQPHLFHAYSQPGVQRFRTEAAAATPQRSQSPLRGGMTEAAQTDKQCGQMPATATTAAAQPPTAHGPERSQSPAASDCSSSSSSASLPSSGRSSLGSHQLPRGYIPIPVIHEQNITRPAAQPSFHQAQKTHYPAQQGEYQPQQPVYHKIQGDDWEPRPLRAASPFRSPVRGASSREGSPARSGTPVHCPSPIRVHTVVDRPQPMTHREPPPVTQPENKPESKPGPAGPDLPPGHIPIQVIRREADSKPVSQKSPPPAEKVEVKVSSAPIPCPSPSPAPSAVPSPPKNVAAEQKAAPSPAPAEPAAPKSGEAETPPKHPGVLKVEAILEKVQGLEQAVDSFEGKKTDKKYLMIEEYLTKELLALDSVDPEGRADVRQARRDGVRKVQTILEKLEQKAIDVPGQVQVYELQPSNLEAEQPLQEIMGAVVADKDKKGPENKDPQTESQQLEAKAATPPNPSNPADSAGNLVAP
UniProt P46935: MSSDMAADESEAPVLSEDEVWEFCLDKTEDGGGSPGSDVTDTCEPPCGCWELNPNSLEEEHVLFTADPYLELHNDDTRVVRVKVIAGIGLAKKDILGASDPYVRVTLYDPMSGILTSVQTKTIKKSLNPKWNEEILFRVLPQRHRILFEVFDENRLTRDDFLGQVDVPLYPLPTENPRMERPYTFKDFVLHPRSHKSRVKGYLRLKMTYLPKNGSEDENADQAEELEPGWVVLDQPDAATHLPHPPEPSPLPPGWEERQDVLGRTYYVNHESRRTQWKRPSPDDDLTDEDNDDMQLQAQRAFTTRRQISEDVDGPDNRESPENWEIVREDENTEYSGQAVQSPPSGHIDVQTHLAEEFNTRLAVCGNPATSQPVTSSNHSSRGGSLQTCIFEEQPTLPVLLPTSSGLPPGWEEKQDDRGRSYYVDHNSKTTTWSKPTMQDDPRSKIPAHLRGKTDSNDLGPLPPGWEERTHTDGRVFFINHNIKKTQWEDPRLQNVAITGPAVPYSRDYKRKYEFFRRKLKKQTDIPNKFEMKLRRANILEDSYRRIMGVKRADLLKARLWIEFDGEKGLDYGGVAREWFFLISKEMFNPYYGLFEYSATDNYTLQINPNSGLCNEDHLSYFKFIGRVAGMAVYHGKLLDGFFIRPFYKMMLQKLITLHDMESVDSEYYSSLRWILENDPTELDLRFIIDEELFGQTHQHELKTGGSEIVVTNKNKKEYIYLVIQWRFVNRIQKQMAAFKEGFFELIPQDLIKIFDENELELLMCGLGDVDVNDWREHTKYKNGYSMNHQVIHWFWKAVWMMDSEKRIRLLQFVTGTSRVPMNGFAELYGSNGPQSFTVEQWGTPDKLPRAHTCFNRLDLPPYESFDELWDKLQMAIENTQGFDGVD
UniProt Q9R1P4: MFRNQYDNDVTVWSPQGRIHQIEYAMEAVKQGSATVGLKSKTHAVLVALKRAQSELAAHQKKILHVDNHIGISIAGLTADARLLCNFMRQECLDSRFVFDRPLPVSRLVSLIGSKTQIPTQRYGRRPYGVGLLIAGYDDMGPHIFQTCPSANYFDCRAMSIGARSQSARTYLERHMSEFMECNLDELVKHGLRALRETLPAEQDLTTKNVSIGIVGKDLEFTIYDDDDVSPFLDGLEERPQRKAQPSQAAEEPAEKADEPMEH
UniProt Q9Z2U1: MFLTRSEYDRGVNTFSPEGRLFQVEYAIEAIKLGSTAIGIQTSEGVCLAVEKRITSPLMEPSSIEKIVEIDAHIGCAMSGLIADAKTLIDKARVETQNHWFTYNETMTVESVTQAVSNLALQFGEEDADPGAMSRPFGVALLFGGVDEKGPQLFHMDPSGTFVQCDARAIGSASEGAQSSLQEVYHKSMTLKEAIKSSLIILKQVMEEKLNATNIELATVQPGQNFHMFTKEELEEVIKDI
UniProt Q9QUM9: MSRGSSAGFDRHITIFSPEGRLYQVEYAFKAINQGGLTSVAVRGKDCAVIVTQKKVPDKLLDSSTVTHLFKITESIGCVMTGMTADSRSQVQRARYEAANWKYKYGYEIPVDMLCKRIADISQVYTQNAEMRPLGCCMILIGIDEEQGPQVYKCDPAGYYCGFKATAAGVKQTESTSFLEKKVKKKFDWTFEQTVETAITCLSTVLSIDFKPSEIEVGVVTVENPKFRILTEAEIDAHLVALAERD
UniProt Q9Z2U0: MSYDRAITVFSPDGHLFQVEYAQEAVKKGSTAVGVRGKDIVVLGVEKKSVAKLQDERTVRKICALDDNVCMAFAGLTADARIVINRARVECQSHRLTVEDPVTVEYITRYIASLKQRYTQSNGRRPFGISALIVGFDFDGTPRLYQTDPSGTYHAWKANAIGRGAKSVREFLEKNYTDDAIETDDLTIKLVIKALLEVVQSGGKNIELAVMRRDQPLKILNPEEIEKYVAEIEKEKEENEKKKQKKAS
UniProt P60122: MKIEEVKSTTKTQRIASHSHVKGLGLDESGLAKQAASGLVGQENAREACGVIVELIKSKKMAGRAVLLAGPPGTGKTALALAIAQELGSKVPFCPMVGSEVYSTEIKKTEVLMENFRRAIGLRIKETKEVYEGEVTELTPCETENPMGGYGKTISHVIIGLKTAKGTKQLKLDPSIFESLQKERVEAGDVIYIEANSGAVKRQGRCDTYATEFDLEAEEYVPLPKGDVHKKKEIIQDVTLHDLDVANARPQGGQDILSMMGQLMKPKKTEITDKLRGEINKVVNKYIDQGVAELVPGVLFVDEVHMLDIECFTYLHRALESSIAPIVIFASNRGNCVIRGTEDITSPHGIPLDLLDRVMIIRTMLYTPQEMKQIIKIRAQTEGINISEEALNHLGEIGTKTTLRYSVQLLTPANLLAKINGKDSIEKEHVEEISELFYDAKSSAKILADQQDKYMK
UniProt Q8CG46: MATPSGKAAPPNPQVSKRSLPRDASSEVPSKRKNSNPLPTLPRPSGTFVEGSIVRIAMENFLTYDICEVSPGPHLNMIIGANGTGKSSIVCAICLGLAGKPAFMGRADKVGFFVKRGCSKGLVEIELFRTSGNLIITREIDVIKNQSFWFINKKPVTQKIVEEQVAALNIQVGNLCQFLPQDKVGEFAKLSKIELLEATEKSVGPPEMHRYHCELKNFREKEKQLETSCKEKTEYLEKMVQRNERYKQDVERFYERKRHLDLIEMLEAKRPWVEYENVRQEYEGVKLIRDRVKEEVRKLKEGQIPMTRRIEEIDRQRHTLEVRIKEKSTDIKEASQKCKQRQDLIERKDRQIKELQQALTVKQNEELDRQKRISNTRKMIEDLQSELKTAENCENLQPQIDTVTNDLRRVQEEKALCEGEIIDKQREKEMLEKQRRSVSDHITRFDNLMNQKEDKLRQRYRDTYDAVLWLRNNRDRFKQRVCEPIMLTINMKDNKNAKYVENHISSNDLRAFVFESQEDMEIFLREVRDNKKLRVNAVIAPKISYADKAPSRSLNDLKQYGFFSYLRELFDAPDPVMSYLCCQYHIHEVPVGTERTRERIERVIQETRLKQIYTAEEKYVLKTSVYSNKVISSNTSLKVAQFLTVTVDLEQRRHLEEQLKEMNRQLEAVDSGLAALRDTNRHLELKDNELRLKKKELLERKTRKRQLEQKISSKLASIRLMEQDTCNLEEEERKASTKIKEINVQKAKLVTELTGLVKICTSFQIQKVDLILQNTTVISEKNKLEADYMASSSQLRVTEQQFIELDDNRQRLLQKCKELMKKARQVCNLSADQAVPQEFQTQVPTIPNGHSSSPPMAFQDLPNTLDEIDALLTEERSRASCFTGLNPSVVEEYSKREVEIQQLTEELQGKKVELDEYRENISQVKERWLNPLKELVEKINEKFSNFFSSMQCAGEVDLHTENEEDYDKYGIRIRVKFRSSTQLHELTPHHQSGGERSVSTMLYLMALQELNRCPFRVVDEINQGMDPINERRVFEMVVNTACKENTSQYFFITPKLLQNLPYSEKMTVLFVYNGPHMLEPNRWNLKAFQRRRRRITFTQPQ
UniProt Q9D1C2: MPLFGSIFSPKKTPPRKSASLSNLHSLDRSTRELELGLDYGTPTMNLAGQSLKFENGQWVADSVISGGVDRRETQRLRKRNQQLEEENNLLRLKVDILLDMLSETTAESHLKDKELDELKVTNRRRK
UniProt P70168: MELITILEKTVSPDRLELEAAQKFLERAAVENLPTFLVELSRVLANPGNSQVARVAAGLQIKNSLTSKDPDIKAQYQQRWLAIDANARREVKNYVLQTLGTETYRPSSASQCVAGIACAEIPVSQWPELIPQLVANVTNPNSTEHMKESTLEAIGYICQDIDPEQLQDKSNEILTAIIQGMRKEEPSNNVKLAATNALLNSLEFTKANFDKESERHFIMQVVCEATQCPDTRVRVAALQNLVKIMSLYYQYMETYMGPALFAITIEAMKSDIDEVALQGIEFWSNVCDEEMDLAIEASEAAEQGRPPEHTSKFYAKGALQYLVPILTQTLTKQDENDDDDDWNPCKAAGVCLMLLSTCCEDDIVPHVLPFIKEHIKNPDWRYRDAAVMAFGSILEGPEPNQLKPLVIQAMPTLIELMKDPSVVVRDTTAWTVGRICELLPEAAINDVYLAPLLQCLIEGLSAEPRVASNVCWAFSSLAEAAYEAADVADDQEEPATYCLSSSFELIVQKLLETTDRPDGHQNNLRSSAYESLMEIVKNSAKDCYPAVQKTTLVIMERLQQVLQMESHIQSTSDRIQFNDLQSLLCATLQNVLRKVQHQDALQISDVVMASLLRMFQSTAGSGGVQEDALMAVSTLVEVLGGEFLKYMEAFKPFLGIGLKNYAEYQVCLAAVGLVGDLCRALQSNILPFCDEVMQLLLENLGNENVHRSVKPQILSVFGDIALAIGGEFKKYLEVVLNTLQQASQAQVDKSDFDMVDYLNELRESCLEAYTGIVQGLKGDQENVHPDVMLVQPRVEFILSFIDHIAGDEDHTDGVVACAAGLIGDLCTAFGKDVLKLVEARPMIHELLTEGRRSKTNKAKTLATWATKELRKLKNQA
UniProt Q91VH2: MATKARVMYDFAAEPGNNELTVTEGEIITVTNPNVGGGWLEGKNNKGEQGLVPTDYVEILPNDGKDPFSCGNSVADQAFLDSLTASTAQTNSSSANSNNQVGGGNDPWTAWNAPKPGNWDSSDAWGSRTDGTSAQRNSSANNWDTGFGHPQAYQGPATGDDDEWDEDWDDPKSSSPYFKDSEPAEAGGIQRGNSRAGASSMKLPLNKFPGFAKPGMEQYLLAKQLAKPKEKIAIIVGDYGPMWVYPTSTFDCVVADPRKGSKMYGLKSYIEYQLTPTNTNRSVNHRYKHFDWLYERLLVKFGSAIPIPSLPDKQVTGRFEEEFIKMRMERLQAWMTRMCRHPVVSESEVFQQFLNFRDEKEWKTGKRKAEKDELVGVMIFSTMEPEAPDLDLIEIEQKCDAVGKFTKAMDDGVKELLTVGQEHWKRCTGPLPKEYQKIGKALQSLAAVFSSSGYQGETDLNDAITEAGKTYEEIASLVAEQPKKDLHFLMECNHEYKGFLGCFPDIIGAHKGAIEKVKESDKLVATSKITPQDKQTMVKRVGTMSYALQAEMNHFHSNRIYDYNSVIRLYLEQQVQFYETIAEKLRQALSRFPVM

Row | binding [1] | binding [2] | Molecule
1 | binds |  | BCL2-associated athanogene 3 (from UniProt Q9JLV1 1-577)
2 | binds |  | JHD2C (from UniProt Q69ZK6 1-2531)
3 | binds |  | Nedd4 (from UniProt P46935 1-887)
4 | binds |  | PSA1 (from UniProt Q9R1P4 1-263)
5 | binds |  | PSA5 (from UniProt Q9Z2U1 1-241)
6 | binds |  | PSA6 (from UniProt Q9QUM9 1-246)
7 | binds |  | PSA7 (from UniProt Q9Z2U0 1-248)
8 | binds |  | RuvBl1 (from UniProt P60122 1-456)
9 | binds |  | RuvBl2 (from UniProt Q9WTM5 1-463)
10 | binds |  | SMC5 (from UniProt Q8CG46 1-1101)
11 | binds |  | X-ray repair cross complementing 5 (from UniProt P27641 1-732)
12 | binds |  | chibby family member 1 (from UniProt Q9D1C2 1-127)
13 | binds |  | importin 7 (from UniProt Q9EPL8 1-1038)
14 | binds |  | importin 9 (from UniProt Q91YE6 1-1041)
15 | binds |  | importin β (from UniProt P70168 1-876)
16 | binds |  | rapamycin-insensitive companion of mTOR (from UniProt Q6QI06 1-1708)
17 | binds |  | sorting nexin 9 (from UniProt Q91VH2 1-595)
18 |  | binds | importin 5 (protein, UniProt Q8BKC5 1-1097) MAAAAAEQQQFYLLLGNLLSPDNVVRKQAEETYENIPGRSKITFLLQAIRNTTAAEEARQMAAVLLRRLLSSAFDEVYPALPSDVQTAIKSELLMIIQMETQSSMRKKICDIAAELARNLIDEDGNNQWPEGLKFLFDSVSSQNMGLREAALHIFWNFPGIFGNQQQHYLDVIKRMLVQCMQDQEHPSIRTLSARATAAFILANEHNVALFKHFADLLPGFLQAVNDSCYQNDDSVLKSLVEIADTVPKYLRPHLEATLQLSLKLCGDTNLNNMQRQLALEVIVTLSETAAAMLRKHTSLIAQTIPQMLAMMVDLEEDEDWANADELEDDDFDSNAVAGESALDRMACGLGGKLVLPMIKEHIMQMLQNPDWKYRHAGLMALSAIGEGCHQQMEGILNEIVNFVLLFLQDPHPRVRYAACNAVGQMATDFAPGFQKKFHEKVIAALLQTMEDQGNQRVQAHAAAALINFTEDCPKSLLIPYLDNLVKHLHSIMVLKLQELIQKGTKLVLEQVVTSIASVADTAEEKFVPYYDLFMPSLKHIVENAVQKELRLLRGKTIECISLIGLAVGKEKFMQDASDVMQLLLKTQTDFNDMEDDDPQISYMISAWARMCKILGKEFQQYLPVVMGPLMKTASIKPEVALLDTQDMENMSDDDGWEFVNLGDQQSFGIKTAGLEEKSTACQMLVCYAKELKEGFVEYTEQVVKLMVPLLKFYFHDGVRVAAAESMPLLLECARVRGPEYLTQMWHFMCDALIKAIGTEPDSDVLSEIMHSFAKCIEVMGDGCLNNEHFEELGGILKAKLEEHFKNQELRQVKRQDEDYDEQVEESLQDEDDNDVYILTKVSDILHSIFSSYKEKVLPWFEQLLPLIVNLICPQRPWPDRQWGLCIFDDIVEHCSPASFKYAEYFISPMLQYVCDNSPEVRQAAAYGLGVMAQFGGDNYRPFCTDALPLLVRVIQAPEAKTKENVNATENCISAVGKIMKFKPDCVNVEEVLPHWLSWLPLHEDKEEAVQTFSYLCDLIESNHPIVLGPNNTNLPKIFSIIAEGEMHEAIKHEDPCAKRLANVVRQVQTSGGLWTECIAQLSPEQQAAIQELLNSA
19 |  | binds | importin 4 (protein, UniProt Q8VI75 1-1082) MEPAGLEQILKELLLPDTERIRRATEQLQTILRDPAALPALFDLLATATDSQIRQFAAVLTRRRLNNRWRRLAPEQRESLKSLVLTALQKETVHSVSVSLAQLSATIFRKEGLQGWPQFMNLLQHSTHSSHSPEKEVGLLLLSVVVSSQPEAFHAHQHELLQLLNETLSDVSFPGVLFYSLRTLTAIARYVRPDDVSLARMLVPKVVTALRTLIPLDEVKACEALEALDEMLETELPIINPHLSEVLTFCLEVAKNVALGEPLRVRVLCCLTFLVKVKSKALLKNRLVPPLLHALFPLMAAEPPMGQLDPEDQDSDDDDLEIGLMGETPKHFAVQVVDMLALHLPPEKLCPHVMPMLEEALRSEDPYQRKAGFLVLAVLSDGAGDHIRQRLLYPLLQIVCKGLDDPSQIVRNAALFALGQFSENLQPHISSYSEEVMPLLLSYLKSVPMGNTHHLAKACYALENFVENLGPKVQPYLPELMECMLQPLKNPSKARTKELAVSAIGAIATAAQDSLLPYFPTIMDLLREFLLTGHEDFHLVQIQSLETLGVLARALGESMKPLAEECCQLGLGLCIHIDDPDVRRCTYSLFAALSGLMGEGLGPYLPQITTLMLLSLRSTEGIVPQYDGISSFLLFDDDSEAEEEEELMDEDMEEEGDDSEISGYSVENAFFDEKEDTCTALGEISMNTCVAFLPFMDATFDEVYKLLECPHMNVRKSAYEALGQFCCALHKASQRSSSDPSSSPVLQTSLARVMPAYMQAVKVERERPVVMAVLESLTGVLRTCGSLALQPPGRLSELCNVLKAVLQKKTACQDAEEDDDEDDDQAEYDAMLLEHAGEAIPVLAATAGGHAFAPFFATFLPLLLCKTKQSCTVAEKSFAVGTLAESIQGLGTASAQFVSRLFPVLLNNAREADPEVRSNAIFGLGVLAEHGGCPAQDHFPKLLGLLLPLLARERHDRVRDNICGALARVLMASPVGKTEPQVLATLLRALPLKEDMEEWLTIGHLFSFLHQNNPEQVVDVASELLRICSLILPDNRIPPDTKAALLLLLTFLAKQHTDSFHTALGSLPNDKAQELQAMMGLT
20 |  | binds | Nup93 (protein, UniProt Q8BJ71 1-819) MDTEGFGELLQQAEQLAAETEGISELPHVERNLQEIQQAGERLRSRTLTRTSQETADVKASVLLGSRGLDISHISQRLESLSAATTFEPLEPVKDTDIQGFLKNEKDNALLSAIEESRKRTFGMAEEYHRESMLVEWEQVKQRILHTLLASGEDALDFTQESEPSYIGDVNPPGRSSLDSIEMAYARQIYIYNEKIVSGHLQPNLVDLCASVAELDDKSISDMWAMVKQMTDVVLTPATDALKSRSSVEVRMDFVKQALGYLEQSYKNYTLVTVFGNLHQAQLGGVPGTYQLVRSFLNIKLPAPSPGLQDGEVEGHPVWALIYYCMRCGDLLAASQVVSRAQHQLGEFKTWFQEYMNSKDRRLSPATENKLRLHYRRALRNNTDPYKRAVYCIIGRCDITDNQSEVADKTEDYLWLKLNQVCFDDDGTSSPQDRLTLSQFQKQLLEDYGESHFTVNQQPFLYFQVLFLTAQFEAAIAFLFRMERLRCHAVHVALVLFELKLLLKSSGQSAQLLSHEPGDPPCMRRLNFVRLLMLYTRKFESTDPREALQYFYFLRDEKDSQGENMFLRCVSELVIESREFDMILGKLENDGSRKPGVIDKFTSDTKPIINKVASVAENKGLFEEAAKLYDLAKNADKVLELMNKLLSPVVPQISAPQSNKERLKNMALSIAERYRAQGISANKFVDSTFYLLLDLITFFDEYHSGHIDRAFDIIDRLKLVPLNQESVEERVAAFRNFSDEIRHNLSEVLLATMNILFTQFKRLKGTSPSSATRPQRVIEDRDSQLRSQARALITFAGMIPYRTSGDTNARLVQMEVLMN
21 |  | binds | TRI56 (protein, UniProt Q80VI1 1-734) MNSKVSSPTLLEALSSDFLACKICLEQLHTPKTLPCLHTYCQDCLAQLDIGGQVRCPECREIVPVPAEGVAAFKTNFFVNGLLDLVKARAPGDVHSGKPTCALCPLVGGKSSGGPATARCLDCADDLCQACADGHRCSRQTHKHRVVDLVGYRAGWYDEEARERQASQCPQHPGEALCFLCQPCSQLLCKDCRLGPHIDHPCLPLAEAVRSRKPGLEELLAGVDSNLVELEATRVAEKEALALLREQAASVGTQVEEAAERILKSLLAQKQEVLGQLRALVEAAEEATRERLTKIERQEQVAKAAAAFARRVLSLGLEAEILSLEGAITQRLRQLQDAPWTSGPTRCVLPQLELHPGLEDKNCHLLRLIFEEPKQSPKDSGKGGAGTQGGDEAQGQGDDRTKIGKQGGAQPLTPKEGKDQNPQEDDGVFIERGNRPNKKKKCKGRGKSVSREPSPILRPNLEGSGLLPRPVFSWSFPTRMPGDKRSPRITGLCPYGPQEILVADEQNRVLKRFSLNGDYKGTVQVPEGCSPCSVAALQNAVAFSANAKLYLVSPDGEIQWRRSLSLTQSSHAVAAMPCGDRVAVSVAGHVEVYKKDGSLATRFIPGGKASRGQRALVFLTTSPQGNFVGSDWQQNSVVFCDGLGQVIWEYKGPGLHGCQPGSVSVDKKGYIFLTLREVNKVVILDPKGSLLGDFLTAYHGLEKPRVTTMVDGKYLVVSLSNGTIHVFRVRFPDS
22 |  | binds | PSA4 (protein, UniProt Q9R1P0 1-261) MSRRYDSRTTIFSPEGRLYQVEYAMEAIGHAGTCLGILANDGVLLAAERRNIHKLLDEVFFSEKIYKLNEDMACSVAGITSDANVLTNELRLIAQRYLLQYQEPIPCEQLVTALCDIKQAYTQFGGKRPFGVSLLYIGWDKHYGFQLYQSDPSGNYGGWKATCIGNNSAAAVSMLKQDYKEGEMTLKSALALAVKVLNKTMDVSKLSAEKVEIATLTRESGKTVIRVLKQKEVEQLIKKHEEEEAKAEREKKEKEQREKDK
23 |  | binds | PSA3 (protein, UniProt O70435 1-255) MSSIGTGYDLSASTFSPDGRVFQVEYAMKAVENSSTAIGIRCKDGVVFGVEKLVLSKLYEEGSNKRLFNVDRHVGMAVAGLLADARSLADIAREEASNFRSNFGYNIPLKHLADRVAMYVHAYTLYSAVRPFGCSFMLGSYSANDGAQLYMIDPSGVSYGYWGCAIGKARQAAKTEIEKLQMKEMTCRDVVKEVAKIIYIVHDEVKDKAFELELSWVGELTKGRHEIVPKDIREEAEKYAKESLKEEDESDDDNM
24 |  | binds | PSA2 (protein, UniProt P49722 1-234) MAERGYSFSLTTFSPSGKLVQIEYALAAVAGGAPSVGIKAANGVVLATEKKQKSILYDERSVHKVEPITKHIGLVYSGMGPDYRVLVHRARKLAQQYYLVYQEPIPTAQLVQRVASVMQEYTQSGGVRPFGVSLLICGWNEGRPYLFQSDPSGAYFAWKATAMGKNYVNGKTFLEKRYNEDLELEDAIHTAILTLKESFEGQMTEDNIEVGICNEAGFRRLTPTEVRDYLAAIA
